Measured values published in paper PMC12827560.
The exact form of at least one protein or probe is not confirmed. Where cells or extracts were used, other partners may take part.

Legend:
FOXA1 [1] = assay: EMSA; conditions: EMSA: room temperature, 30 min, 6% native polyacrylamide gel; salt and pH not stated; protein in an extract; label: IR680 at 5' end
FOXA3 [2] = assay: EMSA; conditions: EMSA: room temperature, 30 min, 6% native polyacrylamide gel; salt and pH not stated; protein in an extract; label: IR680 at 5' end
FOXA2 [3] = assay: EMSA; conditions: EMSA: room temperature, 30 min, 6% native polyacrylamide gel; salt and pH not stated; protein in an extract; label: IR680 at 5' end
GATA3 [4] = assay: EMSA; conditions: EMSA: room temperature, 30 min, 6% native polyacrylamide gel; salt and pH not stated; protein in an extract; label: IR680 at 5' end
FOXA1 [5] = assay: competition with a labelled probe; conditions: 200-fold excess vs T1-Wt-IR680; EMSA: room temperature, 30 min, 6% native polyacrylamide gel; salt and pH not stated; protein in an extract
FOXA3 [6] = assay: competition with a labelled probe; conditions: 200-fold excess vs T1-Wt-IR680; EMSA: room temperature, 30 min, 6% native polyacrylamide gel; salt and pH not stated; protein in an extract
FOXA2 [7] = assay: competition with a labelled probe; conditions: 200-fold excess vs T1-Wt-IR680; EMSA: room temperature, 30 min, 6% native polyacrylamide gel; salt and pH not stated; protein in an extract
GATA3 [8] = assay: competition with a labelled probe; conditions: 200-fold excess vs T1-Wt-IR680; EMSA: room temperature, 30 min, 6% native polyacrylamide gel; salt and pH not stated; protein in an extract

Measured: binding result

CTTAAGGCTCGGATGTTTGCTTTTGGCACT (double strand) [T1-Wt-IR680 (exJSRV LTR -146/-132)]
binds: FOXA1 [1] | FOXA3 [2] | FOXA2 [3] | GATA3 [4]

CTTAAGGCTCGGATGTTTGCTTTTGGCACT (double strand) [T1-Wt unlabeled competitor]
binds: FOXA1 [5] | FOXA3 [6] | FOXA2 [7] | GATA3 [8]
